Measurements from “University of Dundee, Small-Polar-MMV Screening Library” (2021), ChEMBL document CHEMBL3988442.

The chains behind the UniProt entries cited, without tags or fusion partners.
UniProt E9BF75, entry or part of it: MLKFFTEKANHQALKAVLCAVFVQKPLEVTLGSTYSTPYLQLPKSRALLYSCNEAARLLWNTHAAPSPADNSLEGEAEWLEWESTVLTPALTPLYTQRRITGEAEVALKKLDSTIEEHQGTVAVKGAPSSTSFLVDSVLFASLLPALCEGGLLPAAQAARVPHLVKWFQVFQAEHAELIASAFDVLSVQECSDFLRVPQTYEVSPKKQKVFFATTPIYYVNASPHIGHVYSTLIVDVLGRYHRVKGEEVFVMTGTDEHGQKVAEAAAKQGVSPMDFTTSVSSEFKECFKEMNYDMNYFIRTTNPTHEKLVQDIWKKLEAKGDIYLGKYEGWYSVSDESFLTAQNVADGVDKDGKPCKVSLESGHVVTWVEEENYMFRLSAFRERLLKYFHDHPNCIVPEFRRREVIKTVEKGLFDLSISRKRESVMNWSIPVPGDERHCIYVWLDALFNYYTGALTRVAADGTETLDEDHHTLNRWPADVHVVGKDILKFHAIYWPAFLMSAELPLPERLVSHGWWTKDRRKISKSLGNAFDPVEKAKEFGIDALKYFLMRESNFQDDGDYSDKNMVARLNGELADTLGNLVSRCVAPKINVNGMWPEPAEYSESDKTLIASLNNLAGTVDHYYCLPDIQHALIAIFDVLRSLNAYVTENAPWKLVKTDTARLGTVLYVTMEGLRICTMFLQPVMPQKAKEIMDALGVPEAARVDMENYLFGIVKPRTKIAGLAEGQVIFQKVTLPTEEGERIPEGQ

All values are in %. The controls that fix the scale are not given in the record; negative values are as filed. The compounds are a random part of those screened.

LdMetRS: 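Methionyl-tRNA synthetase (putative), Leishmania donovani (UniProt E9BF75). Primary screen of methionyl-tRNA synthetase; the read-out is not stated. The test concentration is not given. The values are filed as inhibition. About 68,000 compounds were tested under these conditions; 0.035% (about 24) showed 50% or more at least once.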
Mtb heat-shock: 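Assay on Mycobacterium tuberculosis, filed only as a heat shock assay from Cornell; the read-out is not stated. The concentration is filed as 10 mM, unlikely as a test dose, so the dose is not known. The record gives no direction; compounds that gave an IC50 in retests scored well above the rest, so higher reads as stronger inhibition. Size under these conditions: about 69,000 compounds, about 930 of them at 50% or above in at least one test.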

SMILES: CC(Cn1ccnc1)NC(=O)NCCc1ccccn1 (stereo not shown)
LdMetRS: 6.122
Mtb heat-shock: -1.822

SMILES: COc1ccc2nnc(CCCC(=O)NCCc3ccncc3)n2n1
LdMetRS: 11.11
Mtb heat-shock: 1.939

SMILES: CCc1nc(CN2CCCC(N(C)Cc3nc(C)c(C)o3)C2)no1 (stereo not shown)
LdMetRS: 9.581
Mtb heat-shock: -20.11

SMILES: Cc1nc(CN2CCC(CNC(=O)C3CCOC3)CC2)oc1C (stereo not shown)
LdMetRS: 1.423
Mtb heat-shock: 2.26

SMILES: COc1cccc2c1OCCCN(Cc1c[nH]nc1C(=O)O)C2
LdMetRS: 6.407
Mtb heat-shock: 0.1084

SMILES: CC[C@@H]1N(Cc2nccs2)CCC[C@]12CCC(=O)N2C.O=C(O)C(F)(F)F
Mtb heat-shock: -9.457

SMILES: O=S(=O)(c1cccc(Cl)c1)N1C[C@@H]2CCN[C@@H]2C1
LdMetRS: 9.444

SMILES: O=C(c1cc(C2CC2)no1)N1C[C@H]2CC[C@@H]1CN(Cc1ccccn1)C2
LdMetRS: 14.24

SMILES: CCc1cc(C(=O)N2CCCn3nc(CCC(=O)O)cc3C2)cs1
LdMetRS: 15.38
Mtb heat-shock: 6.065

SMILES: CC(CO)NC(=O)Nc1ccc(CC#N)cc1 (stereo not shown)
LdMetRS: 11.18
Mtb heat-shock: -111.3

SMILES: Cc1c(C(=O)N2CCC(O)(CN(C)C)C2)c2cc(O)ccc2n1C (stereo not shown)
LdMetRS: 9.966
Mtb heat-shock: 12.89

SMILES: Cc1nsc(NC(=O)N2CCCC2C)n1 (stereo not shown)
LdMetRS: 7.902
Mtb heat-shock: 5.758

SMILES: COc1cccc(-c2nc3c([nH]2)CC(C)(C)CNC3=O)c1OC
LdMetRS: 11.76
Mtb heat-shock: -31.24

SMILES: O=S(=O)(c1ccc2c(c1)CCC2)N1CCCC(Cn2cncn2)C1 (stereo not shown)
LdMetRS: 14.76
Mtb heat-shock: -4.988

SMILES: COc1ccc(-c2cc(CNc3ncnc4c3CCNCC4)no2)cc1
LdMetRS: 9.309
Mtb heat-shock: -1.158

SMILES: Cc1noc(C)c1CN1CCCC(c2noc(C3CC3)n2)C1 (stereo not shown)
LdMetRS: 17.48
Mtb heat-shock: 21.06

SMILES: CN1CCCN(C[C@H]2C[C@H](CO)CN(Cc3cccnc3N)C2)CC1
LdMetRS: 6.028
Mtb heat-shock: 36.59

SMILES: Cn1ccc(C(=O)N2CCCCC2c2cc(CCO)[nH]n2)n1 (stereo not shown)
LdMetRS: 8.14
Mtb heat-shock: -2.95

SMILES: CC(C)N1C(=O)C2(CCN(C)CC2)c2cc(F)ccc21
LdMetRS: -2.801

SMILES: O=C(NCCN1CCOCC1)c1cc(-c2ccccc2Cl)[nH]n1
LdMetRS: 7.94
Mtb heat-shock: 23.51

SMILES: O=C(Cc1ccsc1)NCC1Cn2nnc(-c3ccoc3)c2CO1 (stereo not shown)
LdMetRS: -11.96
Mtb heat-shock: 15.06

SMILES: Cc1cccc(NC(=O)N(CCC(F)(F)F)C[C@H](O)CO)c1
LdMetRS: 16.85
Mtb heat-shock: -1.448

SMILES: Cc1ccnc(OC[C@@]23CCO[C@@H]2CCN(c2ncccn2)C3)n1
LdMetRS: 7.299

SMILES: CNc1cc(C2CN(C(=O)c3cscn3)CCO2)nc(C)n1 (stereo not shown)
LdMetRS: 0.5319
Mtb heat-shock: -4.931

The first 3 entries again:

| SMILES | LdMetRS | Mtb heat-shock |
|---|---|---|
| `CC(Cn1ccnc1)NC(=O)NCCc1ccccn1` (stereo not shown) | 6.122 | -1.822 |
| `COc1ccc2nnc(CCCC(=O)NCCc3ccncc3)n2n1` | 11.11 | 1.939 |
| `CCc1nc(CN2CCCC(N(C)Cc3nc(C)c(C)o3)C2)no1` (stereo not shown) | 9.581 | -20.11 |